{"source": "patent US11485762B2", "about": "“Compositions and methods for inhibition of L-plastin activity in osteoclasts to reduce bone loss” (University of Maryland, Baltimore, priority 2017, dated 2022)", "molecules": {"B1": {"name": "FL-LPL: HA-TAT fused full-length L-plastin protein (70-75 kDa), purified from bacterial expression vector pTAT-HA (protein, UniProt P13796 1-627, looked up)", "chain": "MARGSVSDEEMMELREAFAKVDTDGNGYISFNELNDLFKAACLPLPGYRVREITENLMATGDLDQDGRISFDEFIKIFHGLKSTDVAKTFRKAINKKEGICAIGGTSEQSSVGTQHSYSEEEKYAFVNWINKALENDPDCRHVIPMNPNTNDLFNAVGDGIVLCKMINLSVPDTIDERTINKKKLTPFTIQENLNLALNSASAIGCHVVNIGAEDLKEGKPYLVLGLLWQVIKIGLFADIELSRNEALIALLREGESLEDLMKLSPEELLLRWANYHLENAGCNKIGNFSTDIKDSKAYYHLLEQVAPKGDEEGVPAVVIDMSGLREKDDIQRAECMLQQAERLGCRQFVTATDVVRGNPKLNLAFIANLFNRYPALHKPENQDIDWGALEGETREERTFRNWMNSLGVNPRVNHLYSDLSDALVIFQLYEKIKVPVDWNRVNKPPYPKLGGNMKKLENCNYAVELGKNQAKFSLVGIGGQDLNEGNRTLTLALIWQLMRRYTLNILEEIGGGQKVNDDIIVNWVNETLREAKKSSSISSFKDPKISTSLPVLDLIDAIQPGSINYDLLKTENLNDDEKLNNAKYAISMARKIGARVYALPEDLVEVNPKMVMTVFACLMGKGMKRV", "modifications": "full-length HA-TAT tag", "notes": "HA-TAT fused full-length L-plastin protein (70-75 kDa), purified from bacterial expression vector pTAT-HA"}}, "system": "osteoclasts", "assay": "Dose- and time-dependent uptake of TAT-fused FL-LPL by osteoclasts (HA immunoblot)", "assay_type": "cell-based, mouse", "note": "No dose or concentration is given here for some results.", "data": [{"molecule": "B1", "values": [{"measurement": "dose of maximum uptake", "setting": "HA immunoblot of osteoclast lysates", "result": "100 to 200", "unit": "nM"}, {"measurement": "transduced protein level reduced from", "setting": "in osteoclasts", "result": "≥ 12", "unit": "h"}, {"measurement": "transduced protein stable for up to", "setting": "in osteoclasts", "result": "6 to 8", "unit": "h"}]}]}
